Measurements from the supplement of paper PMC4604168 (melanoma cell lines).
Some of the results follow. Many values rest on one well or one pass, so single values are uncertain.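 Cells were imaged in 1,536-well plates, and nuclei stained with an antibody against cleaved PARP were counted against all DNA-stained nuclei to give the apoptosis fraction. Screening doses were chosen to leave most cells alive, and resting and induced cleaved-PARP levels differ strongly between cell lines.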

Key:
Assay in all cases: cleaved PARP positive nuclei fraction relative to DMSO control; melanoma cells; higher = more apoptosis
Settings in all cases: library dose: low library concentration; 72 h
501Mel = test system: 501Mel
A101D = test system: A101D
A2058 = test system: A2058
A375 = test system: A375
C32 = test system: C32
CBRC008 = test system: CBRC008 (line from a melanoma biopsy)
CBRC014 = test system: CBRC014 (line from a melanoma biopsy)
CBRC016 = test system: CBRC016 (line from a melanoma biopsy)
CBRC017 = test system: CBRC017 (line from a melanoma biopsy)
CBRC034 = test system: CBRC034 (line from a melanoma biopsy)
COLO792 = test system: COLO792
COLO800 = test system: COLO800
COLO829 = test system: COLO829
G361 = test system: G361
IPC-298 = test system: IPC-298
IST-MEL1 = test system: IST-MEL1
LB2518-MEL = test system: LB2518-MEL
LOXIMVI = test system: LOXIMVI
MEL-HO = test system: MEL-HO

| Compound | cleaved PARP positive nuclei fraction (501Mel) | cleaved PARP positive nuclei fraction (A101D) | cleaved PARP positive nuclei fraction (A2058) | cleaved PARP positive nuclei fraction (A375) | cleaved PARP positive nuclei fraction (C32) | cleaved PARP positive nuclei fraction (CBRC008) | cleaved PARP positive nuclei fraction (CBRC014) | cleaved PARP positive nuclei fraction (CBRC016) | cleaved PARP positive nuclei fraction (CBRC017) | cleaved PARP positive nuclei fraction (CBRC034) | cleaved PARP positive nuclei fraction (COLO792) | cleaved PARP positive nuclei fraction (COLO800) | cleaved PARP positive nuclei fraction (COLO829) | cleaved PARP positive nuclei fraction (G361) | cleaved PARP positive nuclei fraction (IPC-298) | cleaved PARP positive nuclei fraction (IST-MEL1) | cleaved PARP positive nuclei fraction (LB2518-MEL) | cleaved PARP positive nuclei fraction (LOXIMVI) | cleaved PARP positive nuclei fraction (MEL-HO) |
| --- | --- | --- | --- | --- | --- | --- | --- | --- | --- | --- | --- | --- | --- | --- | --- | --- | --- | --- | --- |
| CC[C@]1(O)C[C@H]2CN(CCc3c([nH]c4ccccc34)[C@@](C(=O)OC)(c3cc4c(cc3OC)N(C=O)[C@H]3[C@@](O)(C(=O)OC)[C@H](OC(C)=O)[C@]5(CC)C=CCN6CC[C@]43[C@@H]65)C2)C1 [vincristine] + CS(=O)(=O)c1ccc(C(=O)Nc2ccc(Cl)c(-c3ccccn3)c2)c(Cl)c1 [vismodegib] (first compound 0.0001 µM, partner dose 1 µM) | 84.6% | 139% | 541% | 252% | 97.4% | 41.7% | 126% | 137% | 153% | 36.6% | 176% | 112% | 110% | 148% | 29.6% | 65.7% | 63.4% | 140% | 50.7% |
| Cc1cc(Nc2cc(N3CCN(C)CC3)nc(Sc3ccc(NC(=O)C4CC4)cc3)n2)n[nH]1 [Tozasertib] + COCC[n+]1c2c(n(Cc3cnccn3)c1C)C(=O)c1ccccc1C2=O [YM155] (first compound 0.006 µM, partner dose 0.0004 µM) | 82.5% | 133% | 51.6% | 202% | 90.1% | 733% | 86.7% | 79.4% | 88.5% | 119% | 96.7% | 34.5% | 110% | 147% | 54.9% | 63.7% | 55.6% | 75.4% | 76.6% |
| Cc1ccc(Nc2nccc(N(C)c3ccc4c(C)n(C)nc4c3)n2)cc1S(N)(=O)=O [Pazopanib] + Cc1cn(-c2cc(NC(=O)c3ccc(C)c(Nc4nccc(-c5cccnc5)n4)c3)cc(C(F)(F)F)c2)cn1 [nilotinib] (first compound 0.4 µM, partner dose 0.2 µM) | 136% | 97.5% | 134% | 39.5% | 73.4% | 164% | 112% | 171% | 130% | 56.6% | 145% | 35.8% | 49.9% | 109% | 72.4% | 88% | 122% | 249% | 98.6% |
| N#CC[C@H](C1CCCC1)n1cc(-c2ncnc3[nH]ccc23)cn1 [ruxolitinib] + Nc1nc(F)nc2c1ncn2[C@@H]1O[C@H](CO)[C@@H](O)[C@@H]1O [fludarabine] (first compound 1 µM, partner dose 0.2 µM) | 15700% | 88.5% | 62.7% | 1930% | 165% | 99.8% | 95.4% | 23.9% | 107% | 38.7% | 140% | 73.3% | 129% | 201% | 45.6% | 68.8% | 93.6% | 52.5% | 77.5% |
| N#CC[C@H](C1CCCC1)n1cc(-c2ncnc3[nH]ccc23)cn1 [ruxolitinib] + Nc1cccc2c1CN(C1CCC(=O)NC1=O)C2=O [lenalidomide] (first compound 1 µM, partner dose 1 µM) | 183% | 95.8% | 69.6% | 71.2% | 80.2% | 205% | 92.2% | 102% | 173% | 116% | 55.6% | 71.2% | 83.9% | 101% | 43.4% | 36.8% | 74.3% | 46.8% | 77.4% |
| CCCCCCCCCCCCCCCCCCOP(=O)([O-])OC1CC[N+](C)(C)CC1 [Perifosine] + O=C(/C=C/c1cccnc1)NCCCCC1CCN(C(=O)c2ccccc2)CC1 [FK866] (first compound 0.4 µM, partner dose 0.01 µM) | 63% | 41.6% | 102% | 94.6% | 87.9% | 2620% | 76.8% | 350% | 1290% | 969% | 448% | 199% | 347% | 3150% | 137% | 87% | 118% | 73.8% | 151% |
| N#CC[C@H](C1CCCC1)n1cc(-c2ncnc3[nH]ccc23)cn1 [ruxolitinib] + CCCCCCCCCCCCCCCCCCOP(=O)([O-])OC1CC[N+](C)(C)CC1 [Perifosine] (first compound 1 µM, partner dose 0.4 µM) | 68.9% | 74.6% | 168% | 77.2% | 65.2% | 67.8% | 112% | 75.2% | 125% | 31.3% | 118% | 142% | 72.8% | 67.4% | 123% | 235% | 78.7% | 17.2% | 146% |
| O=c1[nH]nc(Sc2ncc([N+](=O)[O-])s2)n1-c1ccc2c(c1)OCCO2 + Cc1cn(-c2cc(NC(=O)c3ccc(C)c(Nc4nccc(-c5cccnc5)n4)c3)cc(C(F)(F)F)c2)cn1 [nilotinib] (first compound 0.2 µM, partner dose 0.2 µM) | 136% | 299% | 124% | 61.8% | 92.9% | 195% | 85.4% | 185% | 108% | 57.8% | 79.7% | 67.9% | 31.4% | 70.7% | 123% | 267% | 38.9% | 54.5% | 26.5% |
| O=c1[nH]nc(Sc2ncc([N+](=O)[O-])s2)n1-c1ccc2c(c1)OCCO2 + Cn1cnc2c(F)c(Nc3ccc(Br)cc3Cl)c(C(=O)NOCCO)cc21 [selumetinib] (first compound 0.2 µM, partner dose 0.015 µM) | 238% | 107% | 99.5% | 219% | 83.9% | 137% | 77.4% | 75.8% | 90.8% | 96% | 51.5% | 89.2% | 99.9% | 166% | 108% | 55% | 145% | 65.7% | 127% |
| CCCCCCCCCCCCCCCCCCOP(=O)([O-])OC1CC[N+](C)(C)CC1 [Perifosine] + Cn1cnc2c(F)c(Nc3ccc(Br)cc3Cl)c(C(=O)NOCCO)cc21 [selumetinib] (first compound 0.4 µM, partner dose 0.015 µM) | 146% | 159% | 75.6% | 99.7% | 299% | 102% | 80.1% | 177% | 132% | 50.7% | 113% | 104% | 100% | 161% | 145% | 101% | 75.4% | 184% | 84.7% |
| N#CC[C@H](C1CCCC1)n1cc(-c2ncnc3[nH]ccc23)cn1 [ruxolitinib] + C[C@@H](Oc1cc(-c2cnn(C3CCNCC3)c2)cnc1N)c1c(Cl)ccc(F)c1Cl [Crizotinib] (first compound 1 µM, partner dose 0.2 µM) | 64.4% | 72.7% | 97.9% | 87.4% | 65.7% | 229% | 91.2% | 414% | 106% | 69.5% | 106% | 89.1% | 113% | 98.7% | 230% | 115% | 102% | 68.6% | 54.5% |
| N#CC[C@H](C1CCCC1)n1cc(-c2ncnc3[nH]ccc23)cn1 [ruxolitinib] + COc1ccc(C2=N[C@@H](c3ccc(Cl)cc3)[C@@H](c3ccc(Cl)cc3)N2C(=O)N2CCNC(=O)C2)c(OC(C)C)c1 [Nutlin-3] (first compound 1 µM, partner dose 0.1 µM) | 65.6% | 33.9% | 118% | 49.1% | 74% | 104% | 87.9% | 115% | 134% | 75.6% | 12.3% | 57.8% | 102% | 124% | 122% | 29.5% | 40.2% | 125% | 84.4% |
| Cc1cc(Nc2cc(N3CCN(C)CC3)nc(Sc3ccc(NC(=O)C4CC4)cc3)n2)n[nH]1 [Tozasertib] + CC(C)C[C@H](NC(=O)[C@H](Cc1ccccc1)NC(=O)c1cnccn1)B(O)O [Bortezomib] (first compound 0.006 µM, partner dose 0.001 µM) | 202% | 103% | 164% | 57.9% | 81.9% | 562% | 141% | 137% | 96.4% | 39.7% | 94.7% | 97.4% | 184% | 480% | 63.9% | 131% | 86.3% | 69.4% | 61.2% |
| O=c1[nH]nc(Sc2ncc([N+](=O)[O-])s2)n1-c1ccc2c(c1)OCCO2 + O=C(/C=C/c1cccnc1)NCCCCC1CCN(C(=O)c2ccccc2)CC1 [FK866] (first compound 0.2 µM, partner dose 0.01 µM) | 96.6% | 111% | 112% | 138% | 76.3% | 2410% | 109% | 302% | 213% | 1810% | 213% | 110% | 66.5% | 904% | 593% | 204% | 33.5% | 139% | 470% |
| COc1cc([C@@H]2c3cc4c(cc3[C@@H](O[C@@H]3O[C@@H]5CO[C@@H](C)O[C@H]5[C@H](O)[C@H]3O)[C@H]3COC(=O)[C@H]23)OCO4)cc(OC)c1O [etoposide] + C[C@]1(c2nc3c(C(N)=O)cccc3[nH]2)CCCN1 [Veliparib] (first compound 0.02 µM, partner dose 1.4 µM) | 70.6% | 100% | 149% | 212% | 72.1% | 33.6% | 98.8% | 79.8% | 131% | 67.3% | 72.9% | 74.6% | 124% | 122% | 91.9% | 69.3% | 48% | 130% | 74.5% |
| Cc1cc(Nc2cc(N3CCN(C)CC3)nc(Sc3ccc(NC(=O)C4CC4)cc3)n2)n[nH]1 [Tozasertib] + CNC(=O)c1cc(Oc2ccc(NC(=O)Nc3ccc(Cl)c(C(F)(F)F)c3)cc2)ccn1 [sorafenib] (first compound 0.006 µM, partner dose 0.4 µM) | 90.9% | 47.4% | 126% | 174% | 83.4% | 71.2% | 98.2% | 286% | 97.8% | 147% | 91.2% | 113% | 131% | 69.3% | 163% | 135% | 104% | 175% | 80.9% |

Reformatted: results already given.
Compound | cleaved PARP positive nuclei fraction (501Mel) | cleaved PARP positive nuclei fraction (A101D) | cleaved PARP positive nuclei fraction (A2058) | cleaved PARP positive nuclei fraction (A375) | cleaved PARP positive nuclei fraction (C32) | cleaved PARP positive nuclei fraction (CBRC008) | cleaved PARP positive nuclei fraction (CBRC014) | cleaved PARP positive nuclei fraction (CBRC016) | cleaved PARP positive nuclei fraction (CBRC017) | cleaved PARP positive nuclei fraction (CBRC034) | cleaved PARP positive nuclei fraction (COLO792) | cleaved PARP positive nuclei fraction (COLO800) | cleaved PARP positive nuclei fraction (COLO829) | cleaved PARP positive nuclei fraction (G361) | cleaved PARP positive nuclei fraction (IPC-298) | cleaved PARP positive nuclei fraction (IST-MEL1) | cleaved PARP positive nuclei fraction (LB2518-MEL) | cleaved PARP positive nuclei fraction (LOXIMVI) | cleaved PARP positive nuclei fraction (MEL-HO)
O=c1[nH]nc(Sc2ncc([N+](=O)[O-])s2)n1-c1ccc2c(c1)OCCO2 + O=C(/C=C/c1cccnc1)NCCCCC1CCN(C(=O)c2ccccc2)CC1 [FK866] (first compound 0.2 µM, partner dose 0.01 µM) | 96.6% | 111% | 112% | 138% | 76.3% | 2410% | 109% | 302% | 213% | 1810% | 213% | 110% | 66.5% | 904% | 593% | 204% | 33.5% | 139% | 470%
COc1cc([C@@H]2c3cc4c(cc3[C@@H](O[C@@H]3O[C@@H]5CO[C@@H](C)O[C@H]5[C@H](O)[C@H]3O)[C@H]3COC(=O)[C@H]23)OCO4)cc(OC)c1O [etoposide] + C[C@]1(c2nc3c(C(N)=O)cccc3[nH]2)CCCN1 [Veliparib] (first compound 0.02 µM, partner dose 1.4 µM) | 70.6% | 100% | 149% | 212% | 72.1% | 33.6% | 98.8% | 79.8% | 131% | 67.3% | 72.9% | 74.6% | 124% | 122% | 91.9% | 69.3% | 48% | 130% | 74.5%
